According to the supplement of paper PMC12823440, “Inhibitors supercharge kinase turnover through native proteolytic circuits” (Nature, 2025):
Counter-ions that a name gives are not always drawn. The list shows a part of the results. The calls rarely recur for the same compound in another form.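 Kinases were expressed as nanoluciferase fusions in K562 cells and luminescence was read every 4 h between 2 and 18 h as percent of control, DMSO set to 100% and a positive control to 0%. A time point counts as decreased when the signal drops significantly (2 sigma). The hit call is the authors' own, does not follow from the count of time points alone, and its rule is not shown.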

Sequences of proteins named here, by UniProt entry; tags and fusion partners are left off. A change or cut given only in a name is not applied to a line headed by its entry.
UniProt P48729: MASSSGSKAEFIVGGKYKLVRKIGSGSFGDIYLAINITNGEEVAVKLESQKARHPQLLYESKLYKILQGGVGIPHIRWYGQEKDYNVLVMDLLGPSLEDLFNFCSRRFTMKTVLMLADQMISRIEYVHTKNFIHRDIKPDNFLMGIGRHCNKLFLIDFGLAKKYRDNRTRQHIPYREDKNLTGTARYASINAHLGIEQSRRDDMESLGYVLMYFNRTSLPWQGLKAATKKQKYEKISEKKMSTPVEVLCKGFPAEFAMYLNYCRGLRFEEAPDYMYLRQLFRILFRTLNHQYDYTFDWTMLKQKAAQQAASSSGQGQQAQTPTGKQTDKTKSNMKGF
UniProt P48730: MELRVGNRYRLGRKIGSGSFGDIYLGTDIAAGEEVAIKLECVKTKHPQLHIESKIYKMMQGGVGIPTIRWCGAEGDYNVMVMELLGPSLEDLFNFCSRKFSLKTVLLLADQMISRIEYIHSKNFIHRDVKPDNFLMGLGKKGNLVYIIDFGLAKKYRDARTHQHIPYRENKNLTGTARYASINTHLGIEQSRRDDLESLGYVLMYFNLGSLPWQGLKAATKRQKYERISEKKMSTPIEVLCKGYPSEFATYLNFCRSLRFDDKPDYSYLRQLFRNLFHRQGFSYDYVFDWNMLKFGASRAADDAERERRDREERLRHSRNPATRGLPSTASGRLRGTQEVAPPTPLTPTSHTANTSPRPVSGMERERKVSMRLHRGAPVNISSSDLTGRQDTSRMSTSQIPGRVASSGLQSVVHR
UniProt Q08345: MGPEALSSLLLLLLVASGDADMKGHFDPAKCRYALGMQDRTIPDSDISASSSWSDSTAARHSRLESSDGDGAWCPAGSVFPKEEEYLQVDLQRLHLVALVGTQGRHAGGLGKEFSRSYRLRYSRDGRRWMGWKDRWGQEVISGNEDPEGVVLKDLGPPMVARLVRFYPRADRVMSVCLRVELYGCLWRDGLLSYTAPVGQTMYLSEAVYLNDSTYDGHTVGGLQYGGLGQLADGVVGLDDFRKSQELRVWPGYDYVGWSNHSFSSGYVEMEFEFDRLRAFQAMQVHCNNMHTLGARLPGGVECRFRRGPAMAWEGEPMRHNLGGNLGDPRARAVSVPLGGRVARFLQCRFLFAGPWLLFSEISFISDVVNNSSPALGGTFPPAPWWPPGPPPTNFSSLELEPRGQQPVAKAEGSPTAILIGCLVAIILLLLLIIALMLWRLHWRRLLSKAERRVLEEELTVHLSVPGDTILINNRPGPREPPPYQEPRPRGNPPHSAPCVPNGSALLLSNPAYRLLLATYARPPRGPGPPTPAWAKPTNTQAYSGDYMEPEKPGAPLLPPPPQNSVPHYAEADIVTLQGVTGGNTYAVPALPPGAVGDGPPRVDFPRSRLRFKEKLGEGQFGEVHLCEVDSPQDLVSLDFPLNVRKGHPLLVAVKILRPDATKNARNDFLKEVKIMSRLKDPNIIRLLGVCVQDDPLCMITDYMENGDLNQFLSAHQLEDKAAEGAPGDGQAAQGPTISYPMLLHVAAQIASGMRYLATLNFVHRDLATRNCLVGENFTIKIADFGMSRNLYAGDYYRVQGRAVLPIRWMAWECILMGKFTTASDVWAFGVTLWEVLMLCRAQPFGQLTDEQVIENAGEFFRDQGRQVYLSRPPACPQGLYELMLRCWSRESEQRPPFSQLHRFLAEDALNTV
UniProt Q9Y463, whole entry, looked up: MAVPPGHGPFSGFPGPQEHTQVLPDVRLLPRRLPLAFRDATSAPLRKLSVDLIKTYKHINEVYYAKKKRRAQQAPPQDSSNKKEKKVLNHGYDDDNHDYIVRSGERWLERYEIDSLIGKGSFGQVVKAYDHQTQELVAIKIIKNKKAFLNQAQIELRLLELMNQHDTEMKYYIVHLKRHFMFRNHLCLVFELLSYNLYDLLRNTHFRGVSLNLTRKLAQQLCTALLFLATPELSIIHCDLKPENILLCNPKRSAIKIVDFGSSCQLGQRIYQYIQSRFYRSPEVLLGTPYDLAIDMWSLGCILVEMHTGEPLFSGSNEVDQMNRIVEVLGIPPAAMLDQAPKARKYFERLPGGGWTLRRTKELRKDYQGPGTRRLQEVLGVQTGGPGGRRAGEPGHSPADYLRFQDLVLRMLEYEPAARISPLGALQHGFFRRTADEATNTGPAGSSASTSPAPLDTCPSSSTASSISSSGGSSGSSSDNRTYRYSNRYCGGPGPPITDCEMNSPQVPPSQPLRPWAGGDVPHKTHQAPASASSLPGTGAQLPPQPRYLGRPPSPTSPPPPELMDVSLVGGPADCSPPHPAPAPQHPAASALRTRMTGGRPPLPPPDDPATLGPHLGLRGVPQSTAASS
UniProt Q92630: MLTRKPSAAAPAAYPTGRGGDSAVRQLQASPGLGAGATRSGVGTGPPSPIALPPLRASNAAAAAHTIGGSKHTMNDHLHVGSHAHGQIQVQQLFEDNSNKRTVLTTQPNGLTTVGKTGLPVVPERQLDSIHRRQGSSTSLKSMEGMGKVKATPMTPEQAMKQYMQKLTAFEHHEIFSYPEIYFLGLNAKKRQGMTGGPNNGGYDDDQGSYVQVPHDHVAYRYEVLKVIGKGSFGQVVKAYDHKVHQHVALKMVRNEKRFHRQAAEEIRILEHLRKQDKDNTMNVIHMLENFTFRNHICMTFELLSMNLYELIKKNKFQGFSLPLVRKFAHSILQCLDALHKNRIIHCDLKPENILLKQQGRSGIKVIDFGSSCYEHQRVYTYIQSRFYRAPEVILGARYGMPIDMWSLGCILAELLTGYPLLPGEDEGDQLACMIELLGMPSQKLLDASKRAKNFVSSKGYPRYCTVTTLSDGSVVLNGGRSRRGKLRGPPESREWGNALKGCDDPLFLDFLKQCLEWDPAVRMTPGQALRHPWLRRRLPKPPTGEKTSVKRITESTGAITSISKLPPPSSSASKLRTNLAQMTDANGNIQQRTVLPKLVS

Assays:
Experiment in all cases: number of time points (of 5) at which kinase-Nluc abundance scored as decreased, DMSO-normalised (count); higher = more persistent destabilization
Conditions in all cases: K562; 2-18 h
CSNK1A1 = CSNK1A1 (UniProt P48729)
CSNK1D = CSNK1D (UniProt P48730)
DDR1 = DDR1 (UniProt Q08345)
DYRK1B = DYRK1B (UniProt Q9Y463)
DYRK2 = DYRK2 (UniProt Q92630)
EGFR = EGFR (UniProt P00533)
EGFR_G719S = EGFR_G719S (UniProt P00533)
EGFR_G719S_T790M = EGFR_G719S_T790M (UniProt P00533)
EGFR_L718V = EGFR_L718V (UniProt P00533)
EGFR_L858R = EGFR_L858R (UniProt P00533)

Measured: number of time points

COc1ccc(Cn2cc(C(=O)N=Nc3c(O)[nH]c4c(C)cccc34)nn2)cc1 [MARK4 inhibitor 1] (10 µM)
0: all assays above

COc1ccc2[nH]cc(/C=C3\C(=O)Nc4ccc(NC(=O)CCN5CCCCC5)cc43)c2c1 (2.5 µM)
0: all assays above

CN(CCNc1ccc2ncc(-c3ccc(C(N)=O)cc3)n2n1)C(=O)OC(C)(C)C (10 µM)
1: EGFR_G719S
0: all other assays above

CCOc1ccc(C(=O)Nc2ncc([N+](=O)[O-])s2)cc1 (10 µM)
0: all assays above

O=C1NC(=O)/C(=C/c2ccc3c(c2)OC(F)(F)O3)S1 (10 µM)
0: all assays above

COc1cc(C(N)=O)nc(-c2cccc(C#C[C@]3(O)CCN(C)C3=O)c2)c1 (10 µM)
0: all assays above

CC(C)=CCC[C@](C)(O[C@@H]1O[C@H](CO)[C@@H](O)[C@H](O)[C@H]1O)[C@H]1CC[C@]2(C)[C@@H]1[C@H](O)C[C@@H]1[C@@]3(C)CC[C@H](O)C(C)(C)[C@@H]3[C@@H](O[C@@H]3O[C@H](CO)[C@@H](O)[C@H](O)[C@H]3O[C@@H]3O[C@@H](C)[C@H](O)[C@@H](O)[C@H]3O)C[C@]12C [Ginsenoside Re] (10 µM)
0: all assays above

2 entries picked at random from those above:
CN(CCNc1ccc2ncc(-c3ccc(C(N)=O)cc3)n2n1)C(=O)OC(C)(C)C (10 µM)
1: EGFR_G719S
0: all other assays above

O=C1NC(=O)/C(=C/c2ccc3c(c2)OC(F)(F)O3)S1 (10 µM)
0: all assays above

More results

COc1ccc([C@H]2c3[nH]c4ccc(Cl)cc4c3CCN2C(=O)Oc2ccc(Cl)cc2)cc1 (2.5 µM)
2: EGFR_G719S
0: all other assays above

CC(=O)N1CCN(c2cc(-c3cc(C(F)(F)F)c4c(N)ncnn34)ccc2C#N)C(=O)C1(C)C (10 µM)
0: all assays above

CN1CCN(c2ccc(C(=O)Nc3cc(-c4cccc(NS(=O)(=O)c5ccccc5)c4)[nH]n3)cc2)CC1 [BPR1J-097 Hydrochloride] (2.5 µM)
0: all assays above

C#CCN(C)C(=O)CCNc1nc(N2CCN(C(=O)C=C)CC2)c2cc(Cl)c(-c3c(O)cccc3F)c(F)c2n1 [ARS-1323-alkyne] (2.5 µM)
0: all assays above

CC(C)CN[C@H]1CS(=O)(=O)C[C@@H]1S(=O)(=O)c1ccc(Cl)cc1 (10 µM)
0: all assays above

CCOc1cc(C(=O)N2CCC(N3CCN(C)CC3)CC2)ccc1Nc1ncc2c(n1)N(C1CCCC1)c1ccccc1C(=O)N2C (10 µM)
0: all assays above

Cc1ccc2nc(NC(=O)CSc3nc4c(c(=O)n3-c3ccccc3)SCC4)sc2c1 (2 µM)
0: all assays above

N#Cc1cccc(-c2c[nH]c3ncnc(N4CCOCC4)c23)c1 (10 µM)
0: all assays above

O=C(NCCO)c1ccc2c(c1)nc(Nc1cccc(Cl)c1)c1ccncc12 [CK2 inhibitor 2] (10 µM)
0: all assays above

Cn1c(=O)c(F)c(Nc2ccc(I)cc2F)c2c(=O)n(C[C@@H](O)CO)cnc21 (10 µM)
1: DYRK2
0: all other assays above

O=C(NCCCNC(=O)Nc1cccc(C2=NCCN2)c1)Nc1cccc(C2=NCCN2)c1 [p32 Inhibitor M36] (10 µM)
0: all assays above
